Laboratory results: PMC8881573, “Inhibition of SRP-dependent protein secretion by the bacterial alarmone (p)ppGpp” (Nature Communications, 2022)
No constants are given. Whether binding was seen depends on the method and setting. For some assays here: Binding calls can cover weak binding; strength is not graded here.

By UniProt entry, the sequences of proteins in these tests, tags left out. Where a name states a change or a piece, a line headed by the entry shows the natural chain unless it says otherwise.
UniProt P10121: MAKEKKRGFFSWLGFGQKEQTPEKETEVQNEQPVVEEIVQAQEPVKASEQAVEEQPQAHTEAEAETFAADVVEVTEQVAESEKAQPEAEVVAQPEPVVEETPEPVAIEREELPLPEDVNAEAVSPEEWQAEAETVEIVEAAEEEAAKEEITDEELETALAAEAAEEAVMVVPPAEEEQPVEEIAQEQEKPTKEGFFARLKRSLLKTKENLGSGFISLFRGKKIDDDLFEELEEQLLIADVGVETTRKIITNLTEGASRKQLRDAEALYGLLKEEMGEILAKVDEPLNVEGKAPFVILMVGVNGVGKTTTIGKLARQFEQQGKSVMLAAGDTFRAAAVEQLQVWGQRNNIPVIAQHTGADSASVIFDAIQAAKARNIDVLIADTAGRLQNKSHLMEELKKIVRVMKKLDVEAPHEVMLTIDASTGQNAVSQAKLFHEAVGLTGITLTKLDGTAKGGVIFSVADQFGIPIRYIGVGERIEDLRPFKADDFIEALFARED

How the values were obtained:
[1] = biological target: NG domain of (Ec)FtsY (E. coli) (UniProt P10121); test: SEC; NG domains at 100 µM each (Fig. 3g) or 50 µM each (Fig. 3h, i) with 0.25, 0.5 or 1 mM GMPPNP, 30 min at room temperature; 20 mM HEPES pH 7.5, 200 mM NaCl, 20 mM MgCl2, 20 mM KCl; S200 300/10 GL at 4 °C; both purified
[2] = biological target: NG domain of (Ec)FtsY (E. coli) (UniProt P10121); test: condition: only with ppGpp or pppGpp at more than twofold the GMPPNP concentration; SEC; as a1, with ppGpp or pppGpp added at more than twofold the GMPPNP concentration; half-inhibited at equal (p)ppGpp/GMPPNP ratios; both purified

binding [1]: binds | binding [2]: no binding
B1: NG domain of (Ec)Ffh (domain or fragment, UniProt P0AGD7 2-299)
chain: FDNLTDRLSRTLRNISGRGRLTEDNVKDTLREVRMALLEADVALPVVREFINRVKEKAVGHEVNKSLTPGQEFVKIVRNELVAAMGEENQTLNLAAQPPAVVLMAGLQGAGKTTSVGKLGKFLREKHKKKVLVVSADVYRPAAIKQLETLAEQVGVDFFPSDVGQKPVDIVNAALKEAKLKFYDVLLVDTAGRLHVDEAMMDEIKQVHASINPVETLFVVDAMTGQDAANTAKAFNEALPLTGVVLTKVDGDARGGAALSIRHITGKPIKFLGVGEKTEALEPFHPDRIASRILGMGD
